Data as given in PubChem BioAssay AID1159584 (Peter MacCallum Cancer Centre, 2016)
In all, the deposit lists about 18,000 reagents; below is an unselected part. Not all columns of the deposit are shown. The record does not give: the amount of reagent, the time to read-out.

Test: 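Knock-downs that harm CDH1-null cells more than parental MCF10A cells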 (primary screen)
Cell system: human MCF10A breast epithelial cells, parental and CDH1-null
Knock-down reagent: siRNA against human genes
Detection: 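Cell viability by CellTiter-Glo ATP luminescence, each line scaled to the mean of mock wells across plates, then CDH1-null over parental ratio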
Scale: CDH1-null / parental viability ratio: higher = CDH1-null cells survive relatively better than parental

CDH1-null / parental viability ratio | Gene
1.18 | PCDHGA6 (protocadherin gamma subfamily A, 6)
1.03 | RAI1 (retinoic acid induced 1)
1.14 | ZUP1 (zinc finger containing ubiquitin peptidase 1)
0.95 | FASTKD2 (FASTK mitochondrial RNA regulator 2)
1.17 | KIRREL3 (kirre like nephrin family adhesion molecule 3)
0.94 | CCDC90B (coiled-coil domain containing 90B)
1.11 | GAMT (guanidinoacetate N-methyltransferase)
0.74 | PRLR (prolactin receptor)
1.2 | USP20 (ubiquitin specific peptidase 20)
0.97 | PTGES (prostaglandin E synthase)
0.92 | PRB4 (proline rich protein BstNI subfamily 4)
0.82 | PAPSS2 (3'-phosphoadenosine 5'-phosphosulfate synthase 2)
0.93 | CDC20 (cell division cycle 20)
0.93 | PSG8 (pregnancy specific beta-1-glycoprotein 8)
0.92 | SRRM1 (serine and arginine repetitive matrix 1)
0.86 | SLC23A3
0.96 | FAM186B (family with sequence similarity 186 member B)
0.88 | PANK1 (pantothenate kinase 1)
1.1 | POLR1G (RNA polymerase I subunit G)
1.08 | TNNT3 (troponin T3, fast skeletal type)
1.05 | CCDC69 (coiled-coil domain containing 69)
1.04 | FSAF1 (40S small subunit processome assembly factor 1)
1.13 | BPIFB6 (BPI fold containing family B member 6)
0.71 | TPD52L3 (TPD52 like 3)
1.04 | AFF2 (ALF transcription elongation factor 2)
1.11 | MAPK8IP2 (mitogen-activated protein kinase 8 interacting protein 2)
1.16 | DFFB (DNA fragmentation factor subunit beta)
0.84 | DLX2 (distal-less homeobox 2)
0.98 | SMAD6 (SMAD family member 6)
1.34 | OR4F16 (olfactory receptor family 4 subfamily F member 16)
1.25 | AQP7 (aquaporin 7)
0.82 | LRRFIP2 (LRR binding FLII interacting protein 2)
0.91 | LPIN2 (lipin 2)
0.96 | PLD4 (phospholipase D family member 4)
1.1 | NBR1 (NBR1 autophagy cargo receptor)
0.86 | DLD (dihydrolipoamide dehydrogenase)
1.17 | MS4A15 (membrane spanning 4-domains A15)
1.14 | ADAMTS20 (ADAM metallopeptidase with thrombospondin type 1 motif 20)
1.06 | PFN4 (profilin family member 4)
0.98 | GNPDA1 (glucosamine-6-phosphate deaminase 1)
1.13 | H3C2 (H3 clustered histone 2)
0.97 | ORM1 (orosomucoid 1)
0.96 | TNFSF15 (TNF superfamily member 15)
0.95 | RAB8A (RAB8A, member RAS oncogene family)
0.95 | KRTAP10-11 (keratin associated protein 10-11)
1.6 | PPP1R1C (protein phosphatase 1 regulatory inhibitor subunit 1C)

Already shown: entries from further up.
CDH1-null / parental viability ratio | Gene
0.82 | PAPSS2 (3'-phosphoadenosine 5'-phosphosulfate synthase 2)
0.93 | CDC20 (cell division cycle 20)
0.93 | PSG8 (pregnancy specific beta-1-glycoprotein 8)
0.92 | SRRM1 (serine and arginine repetitive matrix 1)
0.86 | SLC23A3
0.96 | FAM186B (family with sequence similarity 186 member B)
0.88 | PANK1 (pantothenate kinase 1)
1.1 | POLR1G (RNA polymerase I subunit G)
1.08 | TNNT3 (troponin T3, fast skeletal type)
1.05 | CCDC69 (coiled-coil domain containing 69)
1.04 | FSAF1 (40S small subunit processome assembly factor 1)
1.13 | BPIFB6 (BPI fold containing family B member 6)
0.71 | TPD52L3 (TPD52 like 3)

The listing continues:
CDH1-null / parental viability ratio | Gene
1.02 | ACTG1 (actin gamma 1)
1.18 | BRIX1 (biogenesis of ribosomes BRX1)
1.04 | JRK (Jrk helix-turn-helix protein)
0.67 | HOOK3 (hook microtubule tethering protein 3)
1.04 | MPPED2 (metallophosphoesterase domain containing 2)
0.81 | S100Z (S100 calcium binding protein Z)
0.94 | ETNK1 (ethanolamine kinase 1)
1 | PRICKLE1 (prickle planar cell polarity protein 1)
0.69 | FAHD2B (fumarylacetoacetate hydrolase domain containing 2B)
0.98 | PPARD (peroxisome proliferator activated receptor delta)
1 | ATR (ATR checkpoint kinase)
1.14 | CXorf58 (chromosome X open reading frame 58)
1.15 | ARHGEF28 (Rho guanine nucleotide exchange factor 28)
0.82 | CDH26 (cadherin 26)
0.95 | SH2B1 (SH2B adaptor protein 1)
1 | LMBR1 (limb development membrane protein 1)
0.87 | WFDC6 (WAP four-disulfide core domain 6)
0.74 | SLC8A2
1.11 | GPX2 (glutathione peroxidase 2)
0.98 | TMEM184A (transmembrane protein 184A)
1.08 | FBXL2 (F-box and leucine rich repeat protein 2)
1.08 | MEI1 (meiotic double-stranded break formation protein 1)
1.03 | MLPH (melanophilin)
0.88 | ITM2A (integral membrane protein 2A)
0.95 | RPS25 (ribosomal protein S25)
1.07 | PRR14 (proline rich 14)
1.05 | PWP2 (PWP2 small subunit processome component)
0.89 | SH3GLB2 (SH3 domain containing GRB2 like, endophilin B2)
0.96 | TCAF2 (TRPM8 channel associated factor 2)
0.98 | SPNS1 (SPNS lysolipid transporter 1, lysophospholipid)
1.11 | SOD2 (superoxide dismutase 2)
1.06 | TM4SF20 (transmembrane 4 L six family member 20)
1.19 | TRAF1 (TNF receptor associated factor 1)
0.94 | TSTD2 (thiosulfate sulfurtransferase like domain containing 2)
0.97 | GATD3 (glutamine amidotransferase class 1 domain containing 3)
0.84 | GNAS (GNAS complex locus)
1.26 | DDX4 (DEAD-box helicase 4)
1.01 | FBXW9 (F-box and WD repeat domain containing 9)
1 | RNASE2 (ribonuclease A family member 2)
0.94 | LINC01600 (long independently transcribed non-coding RNA 1600)
1.06 | NOC3L (NOC3 like DNA replication regulator)
